A short description of the series: ulcerogenic effect (stomach haemorrhage and ulcers). The note with it: rat, po, acute test, rats, five hours after treatment, read-out: UD50. In kind it is in vivo, male Wistar rats. Here is the method:
The analgesic effect of the compounds of the present invention is tested according to the hot (56° C.) plate test on male and female CFLP strain mice weighing 18-22 g. The point of time of the appearence of the deterring reaction Abwehrreaktion is determined and related to the latent time measured on the control group Woolfe and McDonald 1944. At least 10 animals are used per dose. The test compounds are administered orally 60 minutes before the test in the form of a 1% methyl cellulose suspension. The test is carried out on separated male Wistar rats weighing 180-210 g and fasted for 16 hours. The test compounds are suspended in 1% carboxy methyl cellulose and administered orally in a dose of 10 ml/kg.
Five hours after treatment the animals are sacrificed and their stomachs are placed into a 2.5% formaline solution. The number and rate of punctiform haemorrhage and ulcers is evaluated according to the following scale:
1=some punctiform haemorrhage (<10);
2=diffuse haemorrhage or small ulcer (<2 mm);
3=two or more minor small ulcer (<2 mm);
4=one or more large ulcer (>2 mm).

Turning to `COc1ccc2cc([C@H](C)C(=O)O)ccc2c1` [Naproxen, reference compound], the TD50 at 5 h was determined as 20.8 mg/kg.

(Values after US5104884A, “Triazolyl quinoline derivatives” (Alkaloida Vegyeszeti Gyar, priority 1985, dated 1992).)
